Measurements reported in PubChem BioAssay AID1259308 (NCATS, 2017).
Test: 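Knock-downs that increase output of a recombinant reporter protein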 (primary screen). System: human HEK293 embryonic kidney cells stably expressing firefly luciferase (HEK-CMV-Luc2-Hygro). Reagent: single siRNA against human genes, 0.8 pmol siRNA per well. Time to read-out: 72 h. Measurement: 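Luciferase light (ONE-Glo) measured on one replicate plate set and viability (CellTiter-Glo) on the other, scaled to a negative control siRNA, with robust z-scores and luciferase per cell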. Scale: total luciferase, z-score and total luciferase, % of control: higher = more reporter protein produced; luciferase per cell, z-score: higher = more reporter output per viable cell; viable cells, % of control: higher = more viable cells. Active means: 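Active when the median/MAD z-score for overall luciferase is greater than 3; a gene was taken forward for validation with new siRNAs if at least two of its three siRNAs passed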. Meaning of the calls: active = raised luciferase; inactive = no rise.
This is a random part of about 59,000 reagents tested. Of all reagents, about 1,510 (2.6%) got an active call. 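Calls use total luciferase alone and ignore viability, so some active siRNAs may act by altering cell number.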 A number with no mark means an inactive call. Reagents against one gene are numbered here.

The first 2 records as a preview:
no.	target gene	siRNA no.	total luciferase, z-score	total luciferase, % of control	luciferase per cell, z-score	viable cells, % of control
1	CCDC77	1	-0.462	72.7	-0.304	88
2	CCDC77	2	0.119	84.3	-0.132	97.5

Main list, repeating the preview:
no.	target gene	siRNA no.	total luciferase, z-score	total luciferase, % of control	luciferase per cell, z-score	viable cells, % of control
1	CCDC77	1	-0.462	72.7	-0.304	88
2	CCDC77	2	0.119	84.3	-0.132	97.5
3	CCDC77	3	-0.0983	79.9	-0.374	98.6
4	PLPP5	1	0.813	98.1	0.0586	108
5	PLPP5	2	-0.549	71	-0.491	90.2
6	PLPP5	3	1.62	114	1.44	87.2
7	ACBD5	1	-0.548	71	-0.89	100
8	ACBD5	2	-0.643	69.1	-1	101
9	ACBD5	3	-0.435	73.2	-0.902	104
10	FRMPD2	1	-0.127	79.4	-0.586	103
11	FRMPD2	2	-1.42	53.6	-0.0919	61.3
12	FRMPD2	3	1.77	117	1.69	83.9
13	SCN1B	1	-0.734	67.3	-0.713	90.7
14	SCN1B	2	-0.57	70.6	-0.707	95
15	SCN1B	3	1.27	107	1.53	80
16	ZNF347	1	-0.544	71.1	-1.02	104
17	ZNF347	2	-0.906	63.9	-0.0187	71.7
18	ZNF347	3	-0.123	79.4	-0.324	96.7
19	ANKRD26P1	1	-0.0283	81.3	-0.467	103
20	ANKRD26P1	2	1.01	102	0.737	93.8
21	ANKRD26P1	3	-0.821	65.5	0.0365	72.5
22	ZCCHC12	1	0.313	88.1	0.846	78.8
23	ZCCHC12	2	1.09	103	2.28	63.5
24	ZCCHC12	3	-0.45	72.9	-0.292	88
